From article PMC8655793
Results are given in words; binding and its absence hold for the method and conditions named. Binding seen in cells or lysates may run through a third protein. For some assays here: Binding can be weak; no strength is given.

Sequences of proteins named here, by UniProt entry; tags and fusion partners are left off. A change or cut given only in a name is not applied to a line headed by its entry.
UniProt P34574: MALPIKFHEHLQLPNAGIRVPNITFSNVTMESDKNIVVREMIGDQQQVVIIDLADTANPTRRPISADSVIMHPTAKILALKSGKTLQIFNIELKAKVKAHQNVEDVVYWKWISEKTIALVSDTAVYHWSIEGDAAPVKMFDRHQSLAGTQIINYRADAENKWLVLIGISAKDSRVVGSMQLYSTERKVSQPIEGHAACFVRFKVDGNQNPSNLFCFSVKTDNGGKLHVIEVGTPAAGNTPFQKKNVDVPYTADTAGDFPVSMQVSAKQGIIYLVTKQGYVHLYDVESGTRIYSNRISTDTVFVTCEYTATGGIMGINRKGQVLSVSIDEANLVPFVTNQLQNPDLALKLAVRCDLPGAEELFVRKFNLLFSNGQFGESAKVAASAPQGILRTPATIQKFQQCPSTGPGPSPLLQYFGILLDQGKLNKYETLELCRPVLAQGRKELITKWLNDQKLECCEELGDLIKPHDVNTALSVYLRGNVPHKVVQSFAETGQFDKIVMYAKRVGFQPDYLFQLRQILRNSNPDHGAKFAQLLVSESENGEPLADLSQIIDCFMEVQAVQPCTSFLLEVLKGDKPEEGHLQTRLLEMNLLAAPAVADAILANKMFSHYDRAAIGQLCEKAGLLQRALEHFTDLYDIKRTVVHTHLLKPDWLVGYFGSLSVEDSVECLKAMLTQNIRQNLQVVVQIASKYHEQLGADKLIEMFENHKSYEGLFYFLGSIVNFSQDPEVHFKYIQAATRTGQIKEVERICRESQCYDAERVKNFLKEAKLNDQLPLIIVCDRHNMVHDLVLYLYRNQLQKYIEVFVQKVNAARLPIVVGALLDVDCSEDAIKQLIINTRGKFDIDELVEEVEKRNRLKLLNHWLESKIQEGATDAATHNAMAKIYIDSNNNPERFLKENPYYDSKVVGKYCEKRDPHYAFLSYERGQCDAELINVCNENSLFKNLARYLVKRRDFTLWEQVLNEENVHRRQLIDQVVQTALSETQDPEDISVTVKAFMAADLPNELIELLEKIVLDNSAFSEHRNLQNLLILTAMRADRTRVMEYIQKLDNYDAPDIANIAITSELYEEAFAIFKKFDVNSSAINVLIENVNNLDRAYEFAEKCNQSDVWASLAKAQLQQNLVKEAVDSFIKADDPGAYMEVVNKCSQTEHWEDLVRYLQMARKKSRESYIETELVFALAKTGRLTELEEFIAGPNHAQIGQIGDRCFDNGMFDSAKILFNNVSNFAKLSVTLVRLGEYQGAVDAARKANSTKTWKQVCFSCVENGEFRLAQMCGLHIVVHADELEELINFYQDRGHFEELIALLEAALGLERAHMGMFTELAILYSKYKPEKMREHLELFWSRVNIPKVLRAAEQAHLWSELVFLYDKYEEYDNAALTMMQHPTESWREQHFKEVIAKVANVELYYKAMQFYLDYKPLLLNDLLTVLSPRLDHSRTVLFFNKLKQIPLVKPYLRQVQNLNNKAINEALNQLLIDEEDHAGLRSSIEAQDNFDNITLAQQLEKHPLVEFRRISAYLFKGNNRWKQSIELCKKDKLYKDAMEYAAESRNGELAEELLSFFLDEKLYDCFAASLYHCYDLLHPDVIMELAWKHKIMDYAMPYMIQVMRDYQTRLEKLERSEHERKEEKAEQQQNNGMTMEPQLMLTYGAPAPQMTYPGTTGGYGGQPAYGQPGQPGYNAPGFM
UniProt Q8WQB3: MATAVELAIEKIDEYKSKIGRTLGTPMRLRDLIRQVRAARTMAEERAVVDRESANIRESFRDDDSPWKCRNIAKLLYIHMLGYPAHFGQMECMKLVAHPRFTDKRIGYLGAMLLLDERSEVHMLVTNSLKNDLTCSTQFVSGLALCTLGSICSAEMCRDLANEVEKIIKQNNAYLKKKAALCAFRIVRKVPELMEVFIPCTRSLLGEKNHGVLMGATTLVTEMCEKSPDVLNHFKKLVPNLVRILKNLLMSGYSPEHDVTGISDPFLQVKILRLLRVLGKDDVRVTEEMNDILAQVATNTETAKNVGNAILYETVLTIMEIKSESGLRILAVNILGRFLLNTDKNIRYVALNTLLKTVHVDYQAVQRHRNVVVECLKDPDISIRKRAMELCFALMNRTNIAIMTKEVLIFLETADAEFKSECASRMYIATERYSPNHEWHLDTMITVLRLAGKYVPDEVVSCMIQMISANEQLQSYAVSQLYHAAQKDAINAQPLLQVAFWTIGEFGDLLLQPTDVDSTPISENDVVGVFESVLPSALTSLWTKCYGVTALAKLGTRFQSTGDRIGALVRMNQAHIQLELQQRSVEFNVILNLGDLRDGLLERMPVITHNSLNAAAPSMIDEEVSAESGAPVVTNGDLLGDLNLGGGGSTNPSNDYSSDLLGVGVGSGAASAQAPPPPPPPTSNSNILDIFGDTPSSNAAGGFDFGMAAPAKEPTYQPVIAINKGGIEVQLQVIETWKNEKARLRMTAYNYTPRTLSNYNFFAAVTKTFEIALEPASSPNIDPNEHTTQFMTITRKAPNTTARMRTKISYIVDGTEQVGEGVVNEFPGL

Assays:
[1] = biological target: CHC-1 (clathrin heavy chain) (C. elegans) (UniProt P34574); assay: pull-down; GST pull-down with in vitro translated HA-tagged proteins, read by Western blot; only the target purified
[2] = biological target: GST-APG-1 (AP-1 gamma subunit) (C. elegans) (UniProt Q8WQB3); assay: as above

With “HA-SMAP-1 (stromal membrane-associated protein-1) (from UniProt O18181)” the binding [1] was “no binding” and the binding [2] was “binds”.
